{"source": "paper PMC6877725", "about": "“Identification of the periplasmic DNA receptor for natural transformation of Helicobacter pylori”", "biological_target": "MBP (UniProt P0AEX9)", "assay": "EMSA", "settings": "EMSA: 10 mM Tris-HCl pH 7.5, 50 mM KCl, ~100 mM NaCl, 0.1 mM MgCl2, 1 mM DTT, 0.1 µg/µl BSA, on ice 30 min; recombinant protein; label: 5'-Cy5 on strand 1", "note": "A negative result means that nothing was seen under these conditions."}
{"sequence": "TAGCATCGATCAGTCCTC (double strand) [18 bp dsDNA (Cy5-PNK1 + cPNK1)]", "values": [{"measurement": "binding result", "result": "no binding"}]}
